{"source": "patent US20160362744A1", "about": "“Biomarkers of Mineralocorticoid Receptor Activation” (INSERM (Institut National de la Sante et de la Recherche …, priority 2008, published 2016)", "molecular_target": "T1, rat MR (Rattus norvegicus, UniProt P22199)", "T1 construct": "expressed in transfected cells; host or cells: rat H9C2 cardiomyocyte cells (H9-C2/MR)", "T1 sequence (P22199 1-981)": "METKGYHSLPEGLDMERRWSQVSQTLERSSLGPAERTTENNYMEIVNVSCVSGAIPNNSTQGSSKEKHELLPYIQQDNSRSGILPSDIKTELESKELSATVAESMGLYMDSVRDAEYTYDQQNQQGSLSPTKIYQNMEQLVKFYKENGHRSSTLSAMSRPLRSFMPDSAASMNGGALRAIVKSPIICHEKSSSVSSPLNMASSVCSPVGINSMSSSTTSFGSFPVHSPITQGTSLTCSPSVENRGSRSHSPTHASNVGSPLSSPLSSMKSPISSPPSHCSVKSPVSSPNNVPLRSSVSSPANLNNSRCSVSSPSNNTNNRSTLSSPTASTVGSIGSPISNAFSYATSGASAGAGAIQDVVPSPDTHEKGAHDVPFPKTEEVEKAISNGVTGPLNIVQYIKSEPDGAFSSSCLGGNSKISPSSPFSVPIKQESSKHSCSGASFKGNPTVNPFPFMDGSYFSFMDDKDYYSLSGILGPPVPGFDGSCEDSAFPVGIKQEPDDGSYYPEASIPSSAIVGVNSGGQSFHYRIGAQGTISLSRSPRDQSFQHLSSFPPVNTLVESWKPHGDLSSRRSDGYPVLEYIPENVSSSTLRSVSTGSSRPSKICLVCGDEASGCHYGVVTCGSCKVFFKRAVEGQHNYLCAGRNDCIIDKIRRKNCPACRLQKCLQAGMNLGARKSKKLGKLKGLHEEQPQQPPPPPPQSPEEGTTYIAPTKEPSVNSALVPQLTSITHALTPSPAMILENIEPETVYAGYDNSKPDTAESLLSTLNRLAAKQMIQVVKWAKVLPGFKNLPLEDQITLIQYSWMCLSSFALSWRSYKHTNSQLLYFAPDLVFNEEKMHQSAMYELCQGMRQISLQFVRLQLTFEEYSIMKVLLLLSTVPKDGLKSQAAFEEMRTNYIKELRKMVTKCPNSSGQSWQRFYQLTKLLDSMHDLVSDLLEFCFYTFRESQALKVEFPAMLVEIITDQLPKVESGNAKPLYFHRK", "assay": "Expression of NGAL mRNA (Q-PCR) in rat cardiomyocyte H9C2 cells stably expressing rat MR", "assay_type": "cell-based", "method": "Expression of NGAL in a Cellular Model of Rat Cardiomyocyte (H9C2 Cells) Stably Overexpressing with Rat MR\nQuantitative NGAL mRNA expression was analyzed by quantitative PCR (Q-PCR, Light Cycler, Biorad) using forward 5′-[…]-3′ (SEQ ID NO:3) and reverse 5′-[…]-3′ (SEQ ID NO:4) primers on 25 μl of RT-PCR (using the qPCR Core kit for Sybr Green I from Eurogentec) prepared using 2 μg DNA-free total RNA extracted from rat H9-C2/MR cells treated with various concentrations of aldosterone or 10^−8M corticosterone or 10^−6 M MR antagonist RU 28318 or GR antagonist RU 486, alone or in combination.", "note": "At least one structure is not confirmed: it was looked up by name or label, or the drawing left a doubt.", "data": [{"smiles": "CC#C[C@]1(O)CC[C@H]2[C@@H]3CCC4=CC(=O)CCC4=C3[C@@H](c3ccc(N(C)C)cc3)C[C@@]21C", "note": "[RU 486]", "values": [{"measurement": "Effect on aldosterone-induced increase of Lipocalin2/NGAL expression", "setting": "antagonist (10^−6 M) added to 10^−8M aldosterone", "value": "not"}, {"measurement": "Effect on corticosterone-induced increase of Lipocalin2/NGAL expression", "setting": "antagonist (10^−6 M) with 10^−8M corticosterone", "value": "not"}]}]}
